Assay results from PMC12048556.
These are yes or no findings as the source states them, for the method shown. Binding seen in cells or lysates may run through a third protein. Some entries that bind do so weakly or less than the wild type. Tags and fused reporters may be left off the sequences shown.

Amino acid sequences for entries named in this document (tags omitted).
UniProt P62140: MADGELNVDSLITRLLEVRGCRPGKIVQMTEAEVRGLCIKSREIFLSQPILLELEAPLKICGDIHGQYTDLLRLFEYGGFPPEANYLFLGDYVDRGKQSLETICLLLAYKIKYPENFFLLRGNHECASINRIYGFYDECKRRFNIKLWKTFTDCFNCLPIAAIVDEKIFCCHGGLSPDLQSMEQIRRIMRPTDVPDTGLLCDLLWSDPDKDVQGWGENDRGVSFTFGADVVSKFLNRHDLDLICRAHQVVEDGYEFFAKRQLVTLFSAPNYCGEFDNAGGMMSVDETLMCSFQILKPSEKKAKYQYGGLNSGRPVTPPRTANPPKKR

Molecular target: protein phosphatase-1beta (PP1B) (human (endogenous in H2030)) (UniProt P62140)
Assay: co-IP; Co-IP of PP1B from lysates of H2030 (also H23, MGH1112-1) EV and LKB1 cells over-expressing HA-tagged NUAK1 WT or GKKK; blots for HA-NUAK1, PP1B and I-2

Row | binding | Binder
1 | binds | self-inhibitory protein I-2 (protein, UniProt P41236 1-205) MAASTASHRPIKGILKNKTSTTSSMVASAEQPRGNVDEELSKKSQKWDEMNILATYHPADKDYGLMKIDEPSTPYHSMMGDDEDACSDTEATEAMAPDILARKLAAAEGLEPKYRIQEQESSGEEDSDLSPEEREKKRQFEMKRKLHYNEGLNIKLARQLISKDLHDDDEDEEMLETADGESMNTEESNQGSTPSDQQQNKLRSS
2 | binds | HA-tagged WT NUAK1 (enzyme, UniProt O60285 1-661) MEGAAAPVAGDRPDLGLGAPGSPREAVAGATAALEPRKPHGVKRHHHKHNLKHRYELQETLGKGTYGKVKRATERFSGRVVAIKSIRKDKIKDEQDMVHIRREIEIMSSLNHPHIISIYEVFENKDKIVIIMEYASKGELYDYISERRRLSERETRHFFRQIVSAVHYCHKNGVVHRDLKLENILLDDNCNIKIADFGLSNLYQKDKFLQTFCGSPLYASPEIVNGRPYRGPEVDSWALGVLLYTLVYGTMPFDGFDHKNLIRQISSGEYREPTQPSDARGLIRWMLMVNPDRRATIEDIANHWWVNWGYKSSVCDCDALHDSESPLLARIIDWHHRSTGLQADTEAKMKGLAKPTTSEVMLERQRSLKKSKKENDFAQSGQDAVPESPSKLSSKRPKGILKKRSNSEHRSHSTGFIEGVVGPALPSTFKMEQDLCRTGVLLPSSPEAEVPGKLSPKQSATMPKKGILKKTQQRESGYYSSPERSESSELLDSNDVMGSSIPSPSPPDPARVTSHSLSCRRKGILKHSSKYSAGTMDPALVSPEMPTLESLSEPGVPAEGLSRSYSRPSSVISDDSVLSSDSFDLLDLQENRPARQRIRSCVSAENFLQIQDFEGLQNRPRPQYLKRYRNRLADSSFSLLTDMDDVTQVYKQALEICSKLN
